# Laboratory results published in US11564394B2, “Distorted gold (I)-phosphine complexes and methods for use as antifungal agents” (University of Kentucky Research Foundation, priority 2019, dated 2023).
# Some entries share one result that the patent states for a list of compounds. For at least one compound, name, drawing or mass did not settle the structure.
# Test system: four mammalian cell lines (A549, BEAS-2B, HEK-293, J774A.1)
# Experiment: Mammalian cytotoxicity assays, summary over cell lines
# Type: cell-based
# Conditions: at 7.8 μg/mL; excluding auranofin with J774A.1
# Text: For cytotoxicity assays, the human embryonic kidney cell line (HEK-293) was purchased from the ATCC. The human bronchial epithelial cell line (BEAS-2B), the human lung carcinoma cell line (A549), and the mouse macrophage cell line (J774A.1) were generous gifts from Prof. David K. Orren (University of Kentucky, Lexington, Ky.), Prof. Markos Leggas (University of Kentucky, Lexington, Ky.), and Prof. David J. Feola (University of Kentucky, Lexington, Ky.), respectively. A549, HEK-293, and BEAS-2B cells were cultured in Dulbecco's Modified Eagle's Medium (DMEM, catalog #VWRL0100, VWR, Chicago, Ill.) supplemented with 10% fetal bovine serum (FBS; from ATCC) and 1% penicillin/streptomycin (from ATCC) at 37° C. with 5% CO2. The J774A.1 cells were cultured in DMEM (catalog #30-2002, ATCC, Manassas, Va.), which was also supplemented with FBS and antibiotics and grown at 37° C. with 5% CO2.
# To examine whether the compounds are safe for human cells, cytotoxicity assays were done against four mammalian cell lines: HEK-293, A549, BEAS-2B, and J774A.1 cells. […] HEK-293 and J774A.1 cells were plated at 1×10^4 cells/mL while A549 and BEAS-2B were plated at 3×10^3 cells/mL. Compounds were tested in concentrations ranging from 0.06 to 15.6 μg/mL with final concentration of DMSO at 0.5% (FIG. 4A-D).
smiles,measurement,value
"CC(=O)OC[C@H]1O[C@@H]([S-])[C@H](OC(C)=O)[C@@H](OC(C)=O)[C@@H]1OC(C)=O.CCP(CC)CC.[Au+] [Auranofin, auranofin, reference compound]",cell survival,< 50%
